Experimental data taken from PubChem BioAssay AID540256 (National Center for Advancing Translational Sciences (NCATS), 2011).
Several values for one entry are separate records, joined by “and”; a condition that tells them apart may be missing. Equal values may be shown once. Hit rate of the full screen: of about 300,000 compounds, about 3,700 (1.2%) were called active. The shares of active, inactive and inconclusive entries below differ from those in the screen. Calls come from the whole dose curve; tested in HEK293 cells. Potencies beside an inconclusive call are fits to weak or partial responses and may not hold up.

test: qHTS for Inhibitors of binding or entry into cells for Lassa Virus; details: Lassa virus pseudotype entry inhibition, cell reporter; series mostly up to 37.9 µM; note: nearly all actives have a fitted effect of over 50% in size
Potency is the fitted concentration of half-maximal effect.

Which Potency does the source give for `O=C(N[C@@H](Cc1c[nH]c2ccccc12)C(=O)O)OCC1c2ccccc2-c2ccccc21` here?
Its Potency is inconclusive: 6.31 µM [activator, single point].

Which Potency does the source give for `O=C(Nc1ccn(Cc2ccccc2)n1)c1n[nH]c([N+](=O)[O-])c1Cl` here?
Its Potency is active: 7.31 µM.

For `CCCCN(C)CCOc1ccccc1OCC`, which Potency is on record?
The Potency was inconclusive: 7.31 µM [inhibitor, partial curve, poor fit].

With `C=CCOc1c(Br)cc(/C=N/Nc2ccc(C(=O)O)cc2)cc1OCC` as the compound, how does the Potency read?
The Potency was inconclusive: 0.794 µM [activator, full curve, poor fit].

Which Potency does the source give for `CNC(=O)CSc1nnc(C(C)C)n1C` here?
Its Potency is “inactive”.

For `COCC(=O)Nc1cc(C(=O)NCCc2ccccc2)ccc1Cl`, which Potency is on record?
Its Potency is active: 10 µM.

With `c1ccc(C(c2nnnn2C2CCCCC2)N2CCc3ccccc3C2)nc1` (stereo not given) as the compound, how does the Potency read?
Its Potency is “inactive”.

For `CCOC(=O)c1c(C)[nH]c(CCC(=O)NCc2ccc(CC)cc2)c1C`, which Potency is on record?
The Potency was “inactive”.

With `CC(C)c1ccc(O)c(NC(=S)NC(=O)CCc2ccccc2)c1` as the compound, how does the Potency read?
The Potency was inconclusive: 12.6 µM [inhibitor, partial curve, poor fit].

Which Potency does the source give for `CCc1ccc(-n2cnc3cc(C(=O)NCc4ccc(C)cc4)ccc32)cc1` here?
Its Potency is inconclusive: 5.62 µM [inhibitor, full curve, poor fit].

With `CCN(CC)CCCNC(=O)c1ccc2c(=O)n(CCc3ccccc3)c(=O)[nH]c2c1` as the compound, how does the Potency read?
Its Potency is inconclusive: 0.891 µM [activator, full curve, poor fit].

Which Potency does the source give for `COc1ccc(S(=O)(=O)NCC(c2ccc3c(c2)OCO3)N2CCOCC2)cc1C` (stereo not given) here?
Its Potency is inconclusive: 0.891 µM [inhibitor, full curve, poor fit].

With `Cc1ccc(S(=O)(=O)Nc2c(C)[nH]c(=O)[nH]c2=O)cc1C` as the compound, how does the Potency read?
The Potency was “inactive”.

For `COC(=O)c1cc(S(=O)(=O)N2CCN(c3cccc(C)c3)C(C)C2)cn1C` (stereo not given), which Potency is on record?
Its Potency is inconclusive: 0.891 µM [activator, partial curve, poor fit].

For `CCOC(=O)c1[nH]c2ccccc2c1NC(=O)CCN1CCN(C(=O)OCC)CC1`, which Potency is on record?
The Potency was inconclusive: 0.891 µM [inhibitor, partial curve, poor fit].

With `Cc1nn(Cc2ccccc2)c(C)c1NC(=O)CSc1n[nH]c(C)c1[N+](=O)[O-]` as the compound, how does the Potency read?
Its Potency is inconclusive: 3.98 µM [activator, single point].

For `COc1cccc(NC(=S)N(CCCN2CCOCC2)Cc2cn(C)c3ccccc23)c1`, which Potency is on record?
The Potency was inconclusive: 0.355 µM [inhibitor, partial curve, poor fit].

With `Cc1ccc(-n2[nH]c(C)c(C=Nc3ccc4[nH]c(=O)[nH]c4c3)c2=O)cc1C` as the compound, how does the Potency read?
The Potency was inconclusive: 35.5 µM [inhibitor, single point].

With `Cc1ccc(C=NNc2ccc([N+](=O)[O-])cn2)cc1` as the compound, how does the Potency read?
The Potency was inconclusive: 10 µM [inhibitor, partial curve, poor fit].

Which Potency does the source give for `Cc1nc(CC(=O)Nc2ccc(N(C)C)cc2)cs1` here?
The Potency was inconclusive: 15.8 µM [activator, single point].

With `CC(=O)c1ccc(C(=O)N2CCCC(N3CCN(c4ccc(F)cc4)CC3)C2)s1` (stereo not given) as the compound, how does the Potency read?
Its Potency is inconclusive: 25.1 µM [inhibitor, single point].

For `O=C(COc1nncc2ccccc12)Nc1ccc(F)c(F)c1`, which Potency is on record?
The Potency was inconclusive: 1.26 µM [activator, single point].

With `Cc1nn(CC(=O)NCc2ccccc2Cl)c(=O)c2nn(-c3ccccc3)c(C)c12` as the compound, how does the Potency read?
The Potency was “inactive”.

With `CC(C)CCNC(=O)CSc1nc2ccccc2s1` as the compound, how does the Potency read?
The Potency was “inactive”.

For `N#CC(C#N)=C1C=CC=CN1/C(=C\c1ccco1)C(=O)c1ccc(-c2ccccc2)cc1`, which Potency is on record?
The Potency was inconclusive: 22.4 µM [inhibitor, single point].

With `CC(C)Cn1cnc2c(Sc3c([N+](=O)[O-])ncn3C)nc(N)nc21` as the compound, how does the Potency read?
Its Potency is inconclusive: 35.5 µM [inhibitor, single point].

Which Potency does the source give for `Cn1c(=O)[nH]c(=O)c2c1nc(N1CCCC1)n2CCCSc1nc2ccccc2o1` here?
Its Potency is inconclusive: 18.3 µM [inhibitor, partial curve, poor fit].

For `CCOc1cc(/C=N\Nc2nc(-c3ccc(C)cc3)c(NC(C)=O)s2)ccc1O`, which Potency is on record?
The Potency was inconclusive: 2.24 µM [inhibitor, partial curve, poor fit].

For `COc1ccc(C(=O)N(Cc2ccccc2)Cc2cc3cc4c(cc3[nH]c2=O)OCCO4)cc1`, which Potency is on record?
The Potency was inconclusive: 7.3 µM [inhibitor, partial curve].

Which Potency does the source give for `O=C(NCCN1CCOCC1)c1ccncc1` here?
Its Potency is inconclusive: 0.206 µM [activator, single point].

For `Cc1cc(C)c(OCCCCN2CCC(C)CC2)c(Br)c1`, which Potency is on record?
Its Potency is inconclusive: 6.31 µM [inhibitor, partial curve, poor fit].

For `COCCNC(=S)N/N=C(\C)c1ccccc1O`, which Potency is on record?
The Potency was “inactive”.

For `Cc1cc(C)cc(OCC(=O)Nc2ccc(S(=O)(=O)Nc3onc(C)c3C)cc2)c1`, which Potency is on record?
The Potency was inconclusive: 12.6 µM [activator, single point].

Which Potency does the source give for `O=C(CSC1=Nc2ccccc2C2=NC(Cc3ccccc3)C(=O)N12)Nc1ccccc1F` (stereo not given) here?
The Potency was inconclusive: 11.2 µM [inhibitor, partial curve, poor fit].

Which Potency does the source give for `COc1ccc(N(C(=O)c2snc(C(N)=O)c2N)C(C(=O)NCc2ccccc2)c2ccc(F)cc2)c(OC)c1` (stereo not given) here?
Its Potency is active: 8.91 µM.

Which Potency does the source give for `C[C@@H]1O[C@@H](O[C@H]2C[C@@H](O)[C@]3(CO)[C@H]4[C@H](O)C[C@]5(C)[C@@H](C6=CC(=O)OC6)CC[C@]5(O)[C@@H]4CC[C@]3(O)C2)[C@H](O)[C@H](O)[C@H]1O` here?
The Potency was active: 58 nM and active: 46.1 nM.

Which Potency does the source give for `COc1ccc(CNC(=O)Cn2c(SCC(=O)Nc3ccc(C)c(C)c3)nc3ccccc32)cc1` here?
Its Potency is inconclusive: 35.5 µM [inhibitor, single point].

With `COC(=O)c1sccc1NC(=O)c1cc(-c2ccc(C)cc2)nc2ccccc12` as the compound, how does the Potency read?
The Potency was “inactive”.

For `COc1cc(/C=N/NC(=O)COc2cc(C)cc(C)c2)ccc1OS(=O)(=O)c1ccc(C)cc1`, which Potency is on record?
Its Potency is inconclusive: 35.5 µM [inhibitor, single point].

For `COc1ccc(-c2ccc(CN3C(CC(C)C)C(=O)N(Cc4cn(Cc5ccco5)nn4)CCS3(=O)=O)cc2)cc1OC` (stereo not given), which Potency is on record?
The Potency was inconclusive: 31.5 µM [inhibitor, single point].
